Assay results as given in publication PMC6118392, “VapC proteins from Mycobacterium tuberculosis share ribonuclease sequence specificity but differ in regulation and toxicity” (PLoS ONE, 2018).
No constants are given. Whether binding was seen depends on the method and setting. Some results given as binding are weak or reduced against the parent protein; the word gives no strength. Tags and fused reporters may be left off the sequences shown.

Chains of the proteins cited; added tags and fusions are not shown.
UniProt O07779: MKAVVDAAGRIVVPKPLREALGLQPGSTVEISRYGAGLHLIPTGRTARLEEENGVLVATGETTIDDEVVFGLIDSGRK

Experiments:
Experiment in all cases: co-purification (His-tag affinity, size exclusion)
[1] = target: T1, VapC27 (Mycobacterium tuberculosis) (UniProt P9WF83)
T1 sequence: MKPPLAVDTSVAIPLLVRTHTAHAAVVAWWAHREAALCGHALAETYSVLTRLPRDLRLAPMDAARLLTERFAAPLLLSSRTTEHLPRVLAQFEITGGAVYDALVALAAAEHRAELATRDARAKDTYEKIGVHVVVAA

[2] = target: T2, VapC39 (Mycobacterium tuberculosis) (UniProt P9WF63)
T2 sequence: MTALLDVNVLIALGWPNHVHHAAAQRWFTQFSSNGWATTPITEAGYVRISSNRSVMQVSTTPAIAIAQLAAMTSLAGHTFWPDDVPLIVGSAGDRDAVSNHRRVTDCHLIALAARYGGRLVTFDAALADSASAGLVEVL

[3] = target: T3, VapC19 (Mycobacterium tuberculosis) (UniProt P9WF93)
T3 sequence: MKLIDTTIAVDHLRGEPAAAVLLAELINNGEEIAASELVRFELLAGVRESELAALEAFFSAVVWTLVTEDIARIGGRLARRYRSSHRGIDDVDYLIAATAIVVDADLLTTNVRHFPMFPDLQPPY

[4] = target: T4, VapC29 (Mycobacterium tuberculosis) (UniProt P9WF79)
T4 sequence: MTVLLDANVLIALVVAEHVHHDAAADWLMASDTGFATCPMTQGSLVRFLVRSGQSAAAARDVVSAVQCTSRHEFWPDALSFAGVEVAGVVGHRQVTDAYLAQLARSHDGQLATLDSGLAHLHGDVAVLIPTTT

[5] = target: T5, VapC1 (Mycobacterium tuberculosis) (UniProt P9WFC1)
T5 sequence: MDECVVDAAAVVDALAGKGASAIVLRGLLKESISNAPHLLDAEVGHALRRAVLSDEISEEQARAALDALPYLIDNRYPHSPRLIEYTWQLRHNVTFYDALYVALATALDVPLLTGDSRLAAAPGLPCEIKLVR

VapB27 (from UniProt O07779 1-78)
binding [1]: binds

B1: VapB39 (protein, UniProt P9WJ23 1-74)
chain: MRTTLQIDDDVLEDARSIARSEGKSVGAVISELARRSLRPVGIVEVDGFPVFDVPPDAPTVTSEDVVRALEDDV
binding [2]: binds

B2: VapB19 (protein, UniProt P95006 1-85)
chain: MRTQVTLGKEELELLDRAAKASGASRSELIRRAIHRAYGTGSKQERLAALDHSRGSWRGRDFTGTEYVDAIRGDLNERLARLGLA
binding [3]: binds

B3: VapB29 (protein, UniProt P9WJ37 1-75)
chain: MRTTIDLPQDLHKQALAIARDTHRTLSETVADLMRRGLAANRPTALSSDPRTGLPLVSVGTVVTSEDVRSLEDEQ
binding [4]: binds

B4: VapB1 (protein, UniProt P0CW29 1-79)
chain: MATIQVRDLPEDVAETYRRRATAAGQSLQTYMRTKLIEGVRGRDKAEAIEILEQALASTASPGISRETIEASRRELRGG
binding [5]: binds
